Laboratory results from patent publication US20100210539A1, “USE OF PEPTIDE LL-37 AS A THERAPEUTIC AGENT” (priority 2007, published 2010).
Part of at least one peptide drawing is inferred or uncertain, most often the ends.

Columns and labels:
[1] = test system: hepatitis B virus (HBV) ayw strain in HepG2-2.2.15 cells; test: HBV replication assay, secreted HBV DNA by TaqMan PCR; conditions: peptide 10 micrograms per ml, six days, HBV DNA in supernatant
[2] = test system: HCMV strain AD169 in MRC-5 cells; test: HCMV plaque reduction assay; conditions: HCMV AD169 in MRC-5 cells; peptide 10 micrograms per ml; 7-10 days

## CC[C@H](C)[C@H](NC(=O)[C@H](CCCCN)NC(=O)[C@H](CCC(=O)O)NC(=O)[C@H](CCCCN)NC(=O)[C@H](CO)NC(=O)[C@H](CCCCN)NC(=O)[C@H](CCCNC(=N)N)NC(=O)[C@H](Cc1ccccc1)NC(=O)[C@H](Cc1ccccc1)NC(=O)[C@H](CC(=O)O)NC(=O)CNC(=O)[C@H](CC(C)C)NC(=O)[C@@H](N)CC(C)C)C(=O)NCC(=O)N[C@@H](CCCCN)C(=O)N[C@@H](CCC(=O)O)C(=O)N[C@@H](Cc1ccccc1)C(=O)N[C@@H](CCCCN)C(=O)N[C@@H](CCCNC(=N)N)C(=O)N[C@H](C(=O)N[C@H](C(=O)N[C@@H](CCC(N)=O)C(=O)N[C@@H](CCCNC(=N)N)C(=O)N[C@H](C(=O)N[C@@H](CCCCN)C(=O)N[C@@H](CC(=O)O)C(=O)N[C@@H](Cc1ccccc1)C(=O)N[C@@H](CC(C)C)C(=O)N[C@@H](CCCNC(=N)N)C(=O)N[C@@H](CC(N)=O)C(=O)N[C@@H](CC(C)C)C(=O)N[C@H](C(=O)N1CCC[C@H]1C(=O)N[C@@H](CCCNC(=N)N)C(=O)N[C@H](C(=O)N[C@@H](CCC(=O)O)C(=O)N[C@@H](CO)C(N)=O)[C@@H](C)O)C(C)C)[C@@H](C)CC)C(C)C)[C@@H](C)CC [LL-37]
[1]
  % inhibition of HBV replication in HEP G2 cells: 16.9%
[2]
  % plaque reduction: 0.0%
